Laboratory results taken from article PMC8418606.
Results are given in words; binding and its absence hold for the method and conditions named. In cells and extracts the contact can be indirect. These calls come from enrichment with a bait or labelling near it, and not all partners need be listed.

By UniProt entry, the sequences of proteins in these tests, tags left out. Where a name states a change or a piece, a line headed by the entry shows the natural chain unless it says otherwise.
UniProt P46531: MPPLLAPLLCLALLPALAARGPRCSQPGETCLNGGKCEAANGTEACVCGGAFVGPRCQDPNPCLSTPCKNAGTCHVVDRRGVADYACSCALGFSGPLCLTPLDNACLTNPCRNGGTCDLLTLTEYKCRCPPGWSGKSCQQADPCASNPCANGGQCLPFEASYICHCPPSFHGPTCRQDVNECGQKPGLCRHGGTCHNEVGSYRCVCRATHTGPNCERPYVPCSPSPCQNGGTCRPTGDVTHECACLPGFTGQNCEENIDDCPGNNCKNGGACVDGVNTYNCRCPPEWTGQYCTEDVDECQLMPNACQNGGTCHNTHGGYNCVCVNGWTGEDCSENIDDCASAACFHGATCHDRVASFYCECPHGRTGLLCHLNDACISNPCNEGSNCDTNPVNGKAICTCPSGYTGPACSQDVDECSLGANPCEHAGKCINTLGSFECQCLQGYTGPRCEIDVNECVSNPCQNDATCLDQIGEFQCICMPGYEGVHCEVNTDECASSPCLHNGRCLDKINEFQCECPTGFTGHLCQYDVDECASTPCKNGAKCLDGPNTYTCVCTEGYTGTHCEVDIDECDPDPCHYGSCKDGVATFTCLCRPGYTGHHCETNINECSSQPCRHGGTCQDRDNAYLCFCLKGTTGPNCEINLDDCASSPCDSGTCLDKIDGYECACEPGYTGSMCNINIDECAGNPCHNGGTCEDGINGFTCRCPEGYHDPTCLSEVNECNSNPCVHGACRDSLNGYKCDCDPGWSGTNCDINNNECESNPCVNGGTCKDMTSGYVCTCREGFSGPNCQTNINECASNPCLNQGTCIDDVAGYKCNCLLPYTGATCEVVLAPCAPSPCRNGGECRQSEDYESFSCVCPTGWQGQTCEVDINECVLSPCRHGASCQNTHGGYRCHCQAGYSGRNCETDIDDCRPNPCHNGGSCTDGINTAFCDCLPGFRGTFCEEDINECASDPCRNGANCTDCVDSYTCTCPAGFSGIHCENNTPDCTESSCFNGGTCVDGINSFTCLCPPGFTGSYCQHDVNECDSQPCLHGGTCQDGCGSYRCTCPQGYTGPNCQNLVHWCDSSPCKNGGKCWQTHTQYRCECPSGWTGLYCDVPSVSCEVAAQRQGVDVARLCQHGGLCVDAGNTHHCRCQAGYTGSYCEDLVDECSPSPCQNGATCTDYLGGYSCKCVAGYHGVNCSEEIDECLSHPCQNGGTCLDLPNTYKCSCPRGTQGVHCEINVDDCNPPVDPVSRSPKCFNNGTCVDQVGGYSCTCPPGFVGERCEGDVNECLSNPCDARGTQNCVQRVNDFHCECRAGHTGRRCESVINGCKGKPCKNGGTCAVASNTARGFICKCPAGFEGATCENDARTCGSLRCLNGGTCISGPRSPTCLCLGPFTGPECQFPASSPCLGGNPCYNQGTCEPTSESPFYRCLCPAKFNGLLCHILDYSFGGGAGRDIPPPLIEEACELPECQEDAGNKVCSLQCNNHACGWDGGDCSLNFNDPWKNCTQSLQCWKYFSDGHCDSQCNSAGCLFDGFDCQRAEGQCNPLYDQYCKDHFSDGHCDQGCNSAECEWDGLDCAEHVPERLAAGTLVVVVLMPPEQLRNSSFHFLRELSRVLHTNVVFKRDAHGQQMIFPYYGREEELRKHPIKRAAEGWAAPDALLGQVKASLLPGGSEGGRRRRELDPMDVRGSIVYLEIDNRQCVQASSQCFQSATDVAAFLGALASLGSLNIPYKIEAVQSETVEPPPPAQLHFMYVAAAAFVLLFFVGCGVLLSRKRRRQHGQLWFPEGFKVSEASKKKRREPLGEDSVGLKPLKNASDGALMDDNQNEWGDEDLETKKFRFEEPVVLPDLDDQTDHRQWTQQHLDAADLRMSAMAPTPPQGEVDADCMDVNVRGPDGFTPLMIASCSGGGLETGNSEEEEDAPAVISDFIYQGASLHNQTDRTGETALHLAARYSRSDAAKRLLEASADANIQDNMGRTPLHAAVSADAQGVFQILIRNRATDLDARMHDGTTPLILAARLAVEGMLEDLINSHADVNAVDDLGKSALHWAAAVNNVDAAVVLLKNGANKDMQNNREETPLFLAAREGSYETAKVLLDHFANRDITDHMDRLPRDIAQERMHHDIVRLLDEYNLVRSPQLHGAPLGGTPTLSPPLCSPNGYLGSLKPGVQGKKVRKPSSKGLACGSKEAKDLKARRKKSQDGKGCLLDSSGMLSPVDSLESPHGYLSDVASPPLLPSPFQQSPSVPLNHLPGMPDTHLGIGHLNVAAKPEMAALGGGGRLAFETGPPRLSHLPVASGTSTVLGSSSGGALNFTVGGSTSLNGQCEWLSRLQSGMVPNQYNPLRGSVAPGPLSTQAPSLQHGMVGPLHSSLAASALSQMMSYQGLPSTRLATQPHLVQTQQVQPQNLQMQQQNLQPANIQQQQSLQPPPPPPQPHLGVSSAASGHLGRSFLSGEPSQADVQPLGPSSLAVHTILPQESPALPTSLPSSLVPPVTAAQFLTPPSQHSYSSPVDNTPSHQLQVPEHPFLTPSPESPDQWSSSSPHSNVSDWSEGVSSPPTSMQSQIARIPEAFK
UniProt Q09472: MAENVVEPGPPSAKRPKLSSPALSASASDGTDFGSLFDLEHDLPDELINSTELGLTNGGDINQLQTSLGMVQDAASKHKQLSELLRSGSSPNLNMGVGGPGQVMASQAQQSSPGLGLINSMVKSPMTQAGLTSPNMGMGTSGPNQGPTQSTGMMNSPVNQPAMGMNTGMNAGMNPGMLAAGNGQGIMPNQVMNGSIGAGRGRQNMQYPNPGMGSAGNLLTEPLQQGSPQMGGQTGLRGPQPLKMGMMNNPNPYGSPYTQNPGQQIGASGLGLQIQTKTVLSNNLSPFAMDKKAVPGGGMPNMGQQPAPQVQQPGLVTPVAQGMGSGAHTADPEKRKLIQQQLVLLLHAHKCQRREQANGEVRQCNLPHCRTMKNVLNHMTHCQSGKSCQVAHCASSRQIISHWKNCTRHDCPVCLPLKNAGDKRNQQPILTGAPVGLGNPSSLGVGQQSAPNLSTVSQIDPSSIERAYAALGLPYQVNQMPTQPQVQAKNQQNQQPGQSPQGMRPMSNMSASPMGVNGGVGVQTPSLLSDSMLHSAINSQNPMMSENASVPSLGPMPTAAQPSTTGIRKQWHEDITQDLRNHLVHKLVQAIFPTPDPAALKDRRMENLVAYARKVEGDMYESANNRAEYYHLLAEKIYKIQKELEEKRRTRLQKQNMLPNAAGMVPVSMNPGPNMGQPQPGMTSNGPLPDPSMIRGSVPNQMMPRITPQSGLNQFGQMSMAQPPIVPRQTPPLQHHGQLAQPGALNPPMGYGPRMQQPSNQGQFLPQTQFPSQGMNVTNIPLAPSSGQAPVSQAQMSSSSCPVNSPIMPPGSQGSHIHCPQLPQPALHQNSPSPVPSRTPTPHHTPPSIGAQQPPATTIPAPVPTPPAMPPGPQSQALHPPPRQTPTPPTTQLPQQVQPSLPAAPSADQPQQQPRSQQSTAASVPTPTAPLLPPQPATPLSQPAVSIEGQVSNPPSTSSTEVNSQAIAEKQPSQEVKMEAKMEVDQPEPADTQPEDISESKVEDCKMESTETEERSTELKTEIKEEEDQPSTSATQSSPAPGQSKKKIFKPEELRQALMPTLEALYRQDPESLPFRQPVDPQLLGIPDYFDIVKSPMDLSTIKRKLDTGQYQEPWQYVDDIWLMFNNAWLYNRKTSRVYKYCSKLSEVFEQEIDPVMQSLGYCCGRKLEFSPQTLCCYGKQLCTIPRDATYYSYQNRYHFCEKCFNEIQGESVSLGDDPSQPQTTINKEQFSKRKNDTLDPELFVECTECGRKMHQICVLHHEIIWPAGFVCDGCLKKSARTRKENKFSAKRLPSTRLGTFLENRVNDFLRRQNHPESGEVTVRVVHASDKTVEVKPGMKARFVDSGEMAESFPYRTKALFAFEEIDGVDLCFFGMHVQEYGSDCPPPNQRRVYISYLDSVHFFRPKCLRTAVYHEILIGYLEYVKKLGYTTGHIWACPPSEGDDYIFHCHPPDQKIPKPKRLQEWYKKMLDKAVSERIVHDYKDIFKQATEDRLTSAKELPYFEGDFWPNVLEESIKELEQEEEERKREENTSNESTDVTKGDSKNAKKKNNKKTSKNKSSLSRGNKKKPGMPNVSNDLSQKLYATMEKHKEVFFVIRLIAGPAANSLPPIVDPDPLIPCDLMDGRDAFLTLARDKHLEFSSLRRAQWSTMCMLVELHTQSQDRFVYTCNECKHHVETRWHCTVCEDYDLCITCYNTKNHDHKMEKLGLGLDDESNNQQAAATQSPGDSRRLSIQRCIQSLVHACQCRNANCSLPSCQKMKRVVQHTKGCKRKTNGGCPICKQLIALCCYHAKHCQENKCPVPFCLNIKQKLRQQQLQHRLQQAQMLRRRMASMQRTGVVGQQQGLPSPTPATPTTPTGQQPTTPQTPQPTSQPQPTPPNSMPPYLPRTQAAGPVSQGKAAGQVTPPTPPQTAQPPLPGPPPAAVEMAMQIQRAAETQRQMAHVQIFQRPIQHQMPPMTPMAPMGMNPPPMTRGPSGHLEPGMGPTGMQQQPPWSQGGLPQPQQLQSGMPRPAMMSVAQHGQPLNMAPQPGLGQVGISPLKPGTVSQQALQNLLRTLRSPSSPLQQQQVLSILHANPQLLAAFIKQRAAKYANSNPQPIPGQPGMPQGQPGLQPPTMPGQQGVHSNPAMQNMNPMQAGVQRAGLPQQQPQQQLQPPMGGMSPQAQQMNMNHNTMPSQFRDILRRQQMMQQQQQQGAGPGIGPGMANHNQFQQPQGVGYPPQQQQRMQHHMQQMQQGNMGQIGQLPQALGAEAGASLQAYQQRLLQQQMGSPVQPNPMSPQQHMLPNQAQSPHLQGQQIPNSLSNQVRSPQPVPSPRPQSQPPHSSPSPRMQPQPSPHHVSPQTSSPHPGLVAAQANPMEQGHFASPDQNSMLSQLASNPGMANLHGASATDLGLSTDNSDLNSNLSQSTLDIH
UniProt Q92831: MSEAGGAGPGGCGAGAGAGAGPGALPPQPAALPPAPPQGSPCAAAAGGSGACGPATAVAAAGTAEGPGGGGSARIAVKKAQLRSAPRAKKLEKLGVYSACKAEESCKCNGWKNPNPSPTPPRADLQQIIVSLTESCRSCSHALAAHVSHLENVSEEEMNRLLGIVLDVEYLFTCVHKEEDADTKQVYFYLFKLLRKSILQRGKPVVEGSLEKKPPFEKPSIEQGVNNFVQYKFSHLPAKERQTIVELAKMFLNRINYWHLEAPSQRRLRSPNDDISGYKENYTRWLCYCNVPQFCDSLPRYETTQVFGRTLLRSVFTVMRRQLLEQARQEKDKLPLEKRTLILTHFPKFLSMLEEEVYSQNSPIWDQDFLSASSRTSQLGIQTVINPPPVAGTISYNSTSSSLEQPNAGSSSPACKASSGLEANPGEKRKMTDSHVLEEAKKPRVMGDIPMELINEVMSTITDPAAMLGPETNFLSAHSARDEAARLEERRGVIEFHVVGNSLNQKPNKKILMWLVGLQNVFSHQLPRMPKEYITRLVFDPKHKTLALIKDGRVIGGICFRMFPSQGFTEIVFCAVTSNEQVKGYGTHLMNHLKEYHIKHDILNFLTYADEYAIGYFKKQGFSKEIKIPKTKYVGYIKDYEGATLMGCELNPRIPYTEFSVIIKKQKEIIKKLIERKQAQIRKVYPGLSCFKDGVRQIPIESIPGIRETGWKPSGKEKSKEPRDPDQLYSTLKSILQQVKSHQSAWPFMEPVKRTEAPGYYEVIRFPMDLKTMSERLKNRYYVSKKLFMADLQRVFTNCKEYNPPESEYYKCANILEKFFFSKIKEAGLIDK
UniProt Q9GZV5: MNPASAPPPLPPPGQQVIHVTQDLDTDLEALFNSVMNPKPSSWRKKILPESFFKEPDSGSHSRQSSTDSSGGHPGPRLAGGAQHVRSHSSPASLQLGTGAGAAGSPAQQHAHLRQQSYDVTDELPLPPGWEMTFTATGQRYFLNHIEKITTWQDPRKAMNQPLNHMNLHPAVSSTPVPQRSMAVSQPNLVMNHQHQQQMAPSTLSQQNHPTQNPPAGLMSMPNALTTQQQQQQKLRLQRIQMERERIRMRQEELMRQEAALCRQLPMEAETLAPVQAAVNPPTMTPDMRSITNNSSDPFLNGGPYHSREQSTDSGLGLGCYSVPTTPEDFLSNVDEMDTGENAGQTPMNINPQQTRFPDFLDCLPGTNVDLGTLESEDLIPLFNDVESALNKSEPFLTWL

Molecular target: FLAG-tagged Notch1 (UniProt P46531)
Test: affinity purification with mass spectrometry; cellular extracts of A549 cells stably expressing FLAG (control) or FLAG-Notch1, anti-FLAG affinity columns, eluted with FLAG peptide; SDS-PAGE, silver stain, differential bands analysed by mass spectrometry

With “histone acetyltransferase p300 (from UniProt Q09472 1-2414) (enzyme)” the binding was “binds”.

With “p300/CBP-associated factor (pCAF) (from UniProt Q92831 1-832) (enzyme)” the binding was “binds”.

With “transcriptional coactivator with PDZ-binding motif (TAZ) (from UniProt Q9GZV5 1-400)” the binding was “binds”.
